# Test results: PubChem BioAssay AID2417 (National Center for Advancing Translational Sciences (NCATS), 2010)
# Among all 140,000 compounds or so, about 4,300 (3.1%) were called active. Inconclusive results, whose numbers are uncertain, are shown with a selection of clear calls.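 Rule for the calls: active = readout at or below -70, meaning at least 70% loss of cells showing the perinucleolar compartment, a nuclear body marking cancer cells; inconclusive = readout between -30 and a set limit; inactive = the rest.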
# Assay: High Content Assay for Compounds that inhibit the Assembly of the Perinucleolar Compartment;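 note: plate controls were DMSO wells for no effect and camptothecin positive control wells for full effect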
# Details: PC3M PTB-GFP, PNC prevalence imaging, 16 h; at 10 µM; stronger effect = lower value
# Procedure, shortened: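 PC3M cells stably expressing PTB-GFP, 750–1000 cells/well, treated 16 h at 37 °C with compound (23 nl of library stock), in duplicate. After paraformaldehyde fixation and Hoechst stain, imaged at 20x; PNC prevalence scored by image analysis.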
row,Compound,"activity change (PNC), negative = inhibition"
1,Cc1cnc(SCCc2ccncc2)nc1C,inconclusive: -71.5%
2,CC1CCCCN1C(=O)c1ccc(C(=O)N2CCCCC2C)cc1 (stereo not drawn),inactive: 0.572%
3,CCC(NS(=O)(=O)c1ccc(OC)cc1)C(=O)O (stereo not drawn),inconclusive: -42.5%
4,COc1ccccc1C(=O)N1CCN=C1SCc1cccnc1,inconclusive: -73.7%
5,COc1cccc(C2CC(c3ccccc3OC)n3nc(N)nc3N2)c1 (stereo not drawn),inconclusive: -52.9%
6,CN=c1scc(C)n1/N=C/c1ccc2c(c1)OCO2,inconclusive: -32.3%
7,COCCNC(=O)/C=C/c1c(Cl)cccc1Cl,inconclusive: -31.1%
8,COc1ccc(Nc2nnc(SCc3cc([N+](=O)[O-])cc4c3OCOC4)s2)cc1,inconclusive: -47.6%
9,CCC(C)c1ccc(NC(=O)c2cccs2)cc1 (stereo not drawn),inactive: 13.4%
10,COc1ccc(N2C(=O)CC(N3CCN(c4ccccc4F)CC3)C2=O)cc1 (stereo not drawn),active: -96.8%
11,COc1cc(NC(=O)c2cc3c(=O)n(C)c4ccccc4c3n2C)cc(OC)c1OC,inactive: 23.7%
12,CCCCC(C(=O)NC(=O)NCc1ccccc1)N1C(=O)c2ccccc2C1=O (stereo not drawn),inconclusive: -68.1%
13,O=S(=O)(c1cccs1)n1cnc2ccccc21,inconclusive: -61.8%
14,CCCc1nn(C)c(C(=O)Nc2ccc(C)c(C)c2)c1Cl,inconclusive: -32.9%
15,Cc1cc(C)c2nc(SCCC#N)nc(C)c2c1,inconclusive: -65.9%
16,CCOc1ccc(C(=O)NC(=S)Nc2ccccc2N2CCC(C)CC2)cc1[N+](=O)[O-],inconclusive: -40.3%
17,COc1ccc(/C=N/NC(=O)c2ccc(-c3ccccc3)cc2)cc1O,inconclusive: -59.7%
18,CC(C)(C)C1CCc2onc(C(=O)Nc3cccnc3)c2C1 (stereo not drawn),inactive: -5.99%
19,CCOc1ccc2oc(=O)cc(C)c2c1,inconclusive: -46.5%
20,CCOC(=O)N1CCC(=NNS(=O)(=O)c2cccc([N+](=O)[O-])c2)CC1,inactive: 22.4%
21,Cc1ccccc1NC(=O)C1c2ccccc2Oc2ccccc21,inconclusive: -39.3%
22,COc1cccc(C2C(C#N)=C(N)Oc3c2oc(CO)cc3=O)c1 (stereo not drawn),inactive: 271%
23,CCCSc1nnc2nc3c(nn12)c1ccccc1n3C,inactive: 6.02%
24,COc1cc(/C=C(\C#N)c2ccccn2)ccc1OCc1ccc(Cl)cc1,inactive: -15.6%

row,Compound,"activity change (PNC), negative = inhibition"
1,CC(C)(C)N=C1NC(=NC(C)(C)C)c2ccccc21,inconclusive: -43%
2,Cc1cc2n(n1)C(c1ccccc1Cl)Nc1ccccc1-2 (stereo not drawn),inconclusive: -49.7%
3,COCCCN=CC1=C(O)CC(C)(C)CC1=O,inactive: 19.3%
4,COc1ccc(C2=NOC(C(=O)NCc3ccco3)C2)cc1OC (stereo not drawn),active: -87%
5,CSc1nnc(-c2sc(-c3ccccc3)nc2C)n1C,inactive: 31%
6,CCOC(=O)c1c(NC(=O)CN2CCCc3ccccc32)sc(C(C)=O)c1C,inconclusive: -59.1%
7,O=C(c1ccccc1)c1c[nH]cc1-c1ccccc1,active: -100%
8,CCc1ccccc1NC1c2ccccc2C(=O)N1c1cc(C)ccn1 (stereo not drawn),inconclusive: -30.5%
9,Cc1ccc(/C=C(\C#N)C(=O)NCC2CCCO2)o1 (stereo not drawn),inconclusive: -48%
10,COc1ccc(/C(C)=N/N=C2/NC(=O)CC(C(=O)O)S2)cc1 (stereo not drawn),inconclusive: -63.3%
11,COc1ccc(S(=O)(=O)N2N=C(C)Oc3ccccc3C2=O)cc1,inconclusive: -61.1%
12,O=c1oc2cc(Br)ccc2n1CSC1=NCCS1,inactive: -20.2%
13,CSC1=NCCN1C(=O)c1ccc2c(c1)OCO2,inactive: -16.3%
14,Cc1nnc(N/N=C/c2ccc(O)c([N+](=O)[O-])c2)[nH]c1=O,inconclusive: -71.4%
15,CCOC(=O)c1cc(NC(=O)Nc2ccccc2OC)c(C)nc1C,active: -80.9%
16,CC1CCCC(C)N1C(=O)CSc1nnnn1-c1cccc2c1CCCC2 (stereo not drawn),inconclusive: -53.2%
17,COc1ccc(C2C(C#N)=C(N)OC(C(C)(C)C)=C2C#N)cc1OC (stereo not drawn),inconclusive: -45.7%
18,CCC(C)c1c(O)nc(SCC(=O)N2CCOCC2)[nH]c1=O (stereo not drawn),inconclusive: -45%
19,Fc1ccc(N/N=C2/CC(c3ccccc3)Oc3ccccc32)c(F)c1 (stereo not drawn),active: -93.6%
20,Cc1ccccc1CNCc1cccnc1,inactive: -13.3%
21,CCCn1nnnc1NC(=O)c1cc(Cl)ccc1Cl,inactive: 28.6%
22,COC(=O)C1CCN(S(=O)(=O)c2ccc(NC(C)=O)cc2)CC1,inactive: -27.7%
23,Cc1cc(N2C(=O)CC(N3CCN(c4ccc(C(=O)c5cccs5)cc4)CC3)C2=O)no1 (stereo not drawn),inconclusive: -41.1%
24,CCN(CC)C(=O)c1cnn(-c2ccccc2)c1NC(=O)c1ccco1,inconclusive: -53.9%

# Looked up above:
# In activity change (PNC), negative = inhibition, COc1ccc(/C(C)=N/N=C2/NC(=O)CC(C(=O)O)S2)cc1 (stereo not drawn) has the entry inconclusive: -63.3%
# In activity change (PNC), negative = inhibition, CCN(CC)C(=O)c1cnn(-c2ccccc2)c1NC(=O)c1ccco1 has the entry inconclusive: -53.9%

# Next part:

row,Compound,"activity change (PNC), negative = inhibition"
1,COc1ccccc1Nc1nnc(SCC(=O)c2cc(C)n(CC3CCCO3)c2C)s1 (stereo not drawn),inconclusive: -37.8%
2,CCOc1ccccc1NC1c2ccccc2C(=O)N1Cc1ccco1 (stereo not drawn),inconclusive: -71.5%
3,Cc1ccc(NCc2nnc(SCC(=O)N3c4ccccc4Sc4ccccc43)o2)c(C)c1,inactive: -18.9%
4,O=C(CNC(=O)c1ccco1)NCC(=O)OCc1cccc(C(=O)Oc2ccccc2)c1,inconclusive: -69.4%
5,O=C(NCCn1ccc2ccccc21)c1ccc2c(c1)OCO2,inconclusive: -56.9%
6,COc1ccc(Nc2nc(N/N=C/c3ccc(N(C)C)cc3)nc(C)c2[N+](=O)[O-])cc1,inactive: -8.79%
7,O=C(Nc1ccccc1)Nc1ccc(F)c([N+](=O)[O-])c1,inactive: 2.12%
8,O=C(CNS(=O)(=O)/C=C/c1ccccc1)OCC(=O)N1CCC(Cc2ccccc2)CC1,active: -107%
9,CC1CC(NC(=O)C2(C)CC2(Cl)Cl)CC(C)(C)C1 (stereo not drawn),inconclusive: -37.8%
10,CCC(C(=O)O/N=C(\N)c1ccccc1)c1ccccc1 (stereo not drawn),inconclusive: -33.5%
11,Cn1c(=O)cc(SCC(=O)N2CCCC2)c2ccc(Cl)cc21,inactive: 75.6%
12,O=C(Nc1ccc(N2CCOCC2)cc1N1CCOCC1)c1cccs1,inactive: -4.29%
13,CC(=O)C1C(c2ccco2)c2c(noc2C)CC1(C)O (stereo not drawn),inconclusive: -37.4%
14,CC(=O)c1cccc(NC(=O)c2ccc(N(C)S(C)(=O)=O)cc2)c1,inconclusive: -60.2%
15,O=C1CCC([N+](=O)[O-])C(c2ccc(Cl)cc2Cl)N1 (stereo not drawn),inconclusive: -33.1%
16,Cc1ccc(N2C(=N)/C(=C3/Nc4ccccc4S3)C(c3ccccc3)C2=O)cc1 (stereo not drawn),inconclusive: -36.6%
17,O=C(C1CCCO1)N1CCN(C(=S)Nc2ccccc2)CC1 (stereo not drawn),inconclusive: -45.4%
18,CC(C)(C)OC(=O)N/N=C/c1ccc(N2CCOCC2)s1,inconclusive: -55.3%
19,Cc1ccc(C)c(SCC(=O)Nc2nnc(-c3ccccc3)o2)c1,inconclusive: -45.5%
20,CCN1CCN(c2c(Cl)cccc2NC(=O)c2ccc(Br)o2)CC1,inconclusive: -35.6%
21,O=C(NC1(C(F)(F)F)NC(=O)N(Cc2ccccc2)C1=O)c1cccnc1 (stereo not drawn),inconclusive: -40.5%
22,CC1CC(C)CN(c2ccc(C(=O)NCc3ccc4c(c3)OCO4)cc2[N+](=O)[O-])C1 (stereo not drawn),inconclusive: -73.2%
23,Cn1c(CO)cnc1S(=O)(=O)Cc1ccc([N+](=O)[O-])cc1,inactive: -11.6%
24,O=C(CCc1nc2ccccc2c(=O)[nH]1)NCc1cccc(Cl)c1,inconclusive: -32.3%

# An excerpt taken from the entries so far:
row,Compound,"activity change (PNC), negative = inhibition"
11,Cn1c(=O)cc(SCC(=O)N2CCCC2)c2ccc(Cl)cc21,inactive: 75.6%
12,O=C(Nc1ccc(N2CCOCC2)cc1N1CCOCC1)c1cccs1,inactive: -4.29%

# (further entries)

row,Compound,"activity change (PNC), negative = inhibition"
1,O=C(CSCC(=O)N1CCOCC1)Nc1nc(-c2ccc3c(c2)OCO3)cs1,inconclusive: -32.5%
2,O=c1c2ccccc2c(C=NCc2ccccn2)c(O)n1-c1ccccc1,inconclusive: -35.7%
3,C/C(=C\C(=S)Nc1ccccc1)Nc1ccc2ccccc2c1,inactive: 1.52%
4,CC1(C)Cc2nc(N)c(C(=O)NCCO)cc2CO1,inactive: -2.13%
5,CCc1ccc(C2NC(=S)NC3=C2C(=O)CC(C)(C)C3)cc1 (stereo not drawn),inconclusive: -35.8%
6,COc1ccc(C2N(c3cc(Cl)ccc3OC)C(=O)C3CCCN32)cc1OC (stereo not drawn),inconclusive: -48.7%
7,CCOc1cc(C2c3c(n[nH]c3C)C(=O)N2c2ccc(Br)cc2)ccc1O (stereo not drawn),inconclusive: -39.5%
8,COc1ccc(-c2[nH]c(-c3ccccc3)nc2SCC(=O)Nc2nccs2)cc1,active: -97.6%
9,O=C1CCc2cc(OCCCCc3nnnn3C3CCCCC3)ccc2N1,inconclusive: -39.9%
10,O=C(Nc1ccc(S(=O)(=O)NC2CCCC2)cc1)c1cnccn1,inactive: -5.42%
11,COc1cc(/C=C2/C(=O)NN(c3cccc(C)c3)C2=O)ccc1OC(=O)c1ccco1,inactive: -7.45%
12,Clc1cccc(Oc2ncccn2)c1,active: -82.6%
13,O=C(c1ccc2ccccc2c1)N1CCN(c2ccc([N+](=O)[O-])c(N3CCOCC3)c2)CC1,inconclusive: -56.5%
14,O=C(C1CCCO1)N1N=C(c2ccc(Br)cc2)CC1c1ccco1 (stereo not drawn),active: -88.7%
15,CC(=O)n1cc(-c2ccncc2)c2ccccc21,inactive: 4.23%
16,CC(=O)c1sc(NC(=O)c2cc3c(C)nn(-c4ccccc4)c3s2)nc1C,inconclusive: -32.8%
17,COc1cc(C(=O)Oc2ccc3c(c2)OCC3=O)cc(OC)c1OC,inconclusive: -48.6%
18,Cc1cc(C)nc(SCC(=O)N/N=C/c2cccn2-c2ccc(O)cc2)n1,inconclusive: -43.5%
19,CCOC(=O)c1sc(NC(=O)CSc2nnc(-c3ccco3)o2)c(C(=O)OCC)c1C,inconclusive: -56.1%
20,CCC(=O)N1CCc2cc(S(=O)(=O)CCC(=O)NCCc3ccc(OC)c(OC)c3)ccc21,inconclusive: -52%
21,O=C(CCC(=O)c1cccs1)OCC(=O)N1CCN(S(=O)(=O)c2ccccc2)CC1,inconclusive: -31.9%
